Source: publication PMC8931191
Results are given in words; binding and its absence hold for the method and conditions named. Binding seen in cells or lysates may run through a third protein. Some binding calls cover weakened binding; strength is not graded here. Where a sequence is shown, tags or fusion partners need not be part of it.

Protein sequences, listed by entry. Tags and fused reporters are not part of them.
UniProt Q8JZL2: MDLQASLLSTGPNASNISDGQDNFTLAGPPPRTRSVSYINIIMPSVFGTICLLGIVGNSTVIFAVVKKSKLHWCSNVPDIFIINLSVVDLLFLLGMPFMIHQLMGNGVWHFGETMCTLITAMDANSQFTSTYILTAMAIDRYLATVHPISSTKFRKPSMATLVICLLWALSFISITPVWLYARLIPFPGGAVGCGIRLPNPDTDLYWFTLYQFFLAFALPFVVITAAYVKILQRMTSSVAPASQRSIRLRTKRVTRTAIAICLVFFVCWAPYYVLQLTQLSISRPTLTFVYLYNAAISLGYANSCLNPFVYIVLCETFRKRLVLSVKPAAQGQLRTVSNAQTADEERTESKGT

B1: 2Flag-MRAP2 (melanocortin receptor accessory protein 2), wild type (protein, UniProt D3Z1Q2 1-207)
chain: MEMSAQRLASNRTSPQSPSNSDYTWEYEYYEIGPVSFEGLKAHKYSIVIGFWVGLAVFVIFMFFVLTLLTKTGAPHQDNAESSERRFRMNSFVSDFGKPLESDKVFSRQGNEESRSLFHCYINEVEHLDRVKVCHQTTAIDSDVHLQEASRSSGRPEEELARFMKFDIPNFVNTEQSSFGEDDLLISEAPVLLENKPVSQTSRIDLD
B2: MRAP2-Flag-F2 (protein, UniProt D3Z1Q2 1-207)
chain: MEMSAQRLASNRTSPQSPSNSDYTWEYEYYEIGPVSFEGLKAHKYSIVIGFWVGLAVFVIFMFFVLTLLTKTGAPHQDNAESSERRFRMNSFVSDFGKPLESDKVFSRQGNEESRSLFHCYINEVEHLDRVKVCHQTTAIDSDVHLQEASRSSGRPEEELARFMKFDIPNFVNTEQSSFGEDDLLISEAPVLLENKPVSQTSRIDLD
B3: 2Flag-MRAP2 Δ4–11 (protein, UniProt D3Z1Q2)
chain: MEMRTSPQSPSNSDYTWEYEYYEIGPVSFEGLKAHKYSIVIGFWVGLAVFVIFMFFVLTLLTKTGAPHQDNAESSERRFRMNSFVSDFGKPLESDKVFSRQGNEESRSLFHCYINEVEHLDRVKVCHQTTAIDSDVHLQEASRSSGRPEEELARFMKFDIPNFVNTEQSSFGEDDLLISEAPVLLENKPVSQTSRIDLD
B4: 2Flag-MRAP2 Δ12–25 (protein, UniProt D3Z1Q2)
chain: MEMSAQRLASNEYEYYEIGPVSFEGLKAHKYSIVIGFWVGLAVFVIFMFFVLTLLTKTGAPHQDNAESSERRFRMNSFVSDFGKPLESDKVFSRQGNEESRSLFHCYINEVEHLDRVKVCHQTTAIDSDVHLQEASRSSGRPEEELARFMKFDIPNFVNTEQSSFGEDDLLISEAPVLLENKPVSQTSRIDLD
B5: 2Flag-MRAP2 Δ26–35 (protein, UniProt D3Z1Q2)
chain: MEMSAQRLASNRTSPQSPSNSDYTWSFEGLKAHKYSIVIGFWVGLAVFVIFMFFVLTLLTKTGAPHQDNAESSERRFRMNSFVSDFGKPLESDKVFSRQGNEESRSLFHCYINEVEHLDRVKVCHQTTAIDSDVHLQEASRSSGRPEEELARFMKFDIPNFVNTEQSSFGEDDLLISEAPVLLENKPVSQTSRIDLD
B6: 2Flag-MRAP2 Δ36–45 (protein, UniProt D3Z1Q2)
chain: MEMSAQRLASNRTSPQSPSNSDYTWEYEYYEIGPVSIVIGFWVGLAVFVIFMFFVLTLLTKTGAPHQDNAESSERRFRMNSFVSDFGKPLESDKVFSRQGNEESRSLFHCYINEVEHLDRVKVCHQTTAIDSDVHLQEASRSSGRPEEELARFMKFDIPNFVNTEQSSFGEDDLLISEAPVLLENKPVSQTSRIDLD

What was measured:
[1] = target: 3HA-MCHR1 (melanin-concentrating hormone receptor 1) (mouse) (UniProt Q8JZL2); experiment: co-IP; HEK293T cells co-transfected with 3HA-MCHR1 and a 2Flag-MRAP construct; extracts 24-36 h after transfection incubated with mouse anti-HA or anti-Flag antibody overnight at 4°C, protein A+G beads 4 h at 4°C, three washes; MRAP1/MRAP2 detected with anti-FLAG in MCHR1 immunoprecipitates
MCHR1-F1 (mouse) = MCHR1-F1 (mouse) (UniProt Q8JZL2); experiment: split reporter; BiFC in HEK293T cells co-transfected with MCHR1-F1 (YFP-F1) and MRAP1-Flag-F2 or MRAP2-Flag-F2 (YFP-F2); cells fixed with 4% PFA, confocal microscopy

binding [1] | binding (MCHR1-F1 (mouse)) | Binder
binds | – | B1
– | binds | B2
binds | – | B3
binds | – | B4
binds | – | B5
binds | – | B6
